Measured values: article PMC9606253
No constants are given. Whether binding was seen depends on the method and setting. In cells and extracts the contact can be indirect. Some binding calls cover weakened binding; strength is not graded here.

Amino acid sequences for entries named in this document (tags omitted).
UniProt Q3TKT4: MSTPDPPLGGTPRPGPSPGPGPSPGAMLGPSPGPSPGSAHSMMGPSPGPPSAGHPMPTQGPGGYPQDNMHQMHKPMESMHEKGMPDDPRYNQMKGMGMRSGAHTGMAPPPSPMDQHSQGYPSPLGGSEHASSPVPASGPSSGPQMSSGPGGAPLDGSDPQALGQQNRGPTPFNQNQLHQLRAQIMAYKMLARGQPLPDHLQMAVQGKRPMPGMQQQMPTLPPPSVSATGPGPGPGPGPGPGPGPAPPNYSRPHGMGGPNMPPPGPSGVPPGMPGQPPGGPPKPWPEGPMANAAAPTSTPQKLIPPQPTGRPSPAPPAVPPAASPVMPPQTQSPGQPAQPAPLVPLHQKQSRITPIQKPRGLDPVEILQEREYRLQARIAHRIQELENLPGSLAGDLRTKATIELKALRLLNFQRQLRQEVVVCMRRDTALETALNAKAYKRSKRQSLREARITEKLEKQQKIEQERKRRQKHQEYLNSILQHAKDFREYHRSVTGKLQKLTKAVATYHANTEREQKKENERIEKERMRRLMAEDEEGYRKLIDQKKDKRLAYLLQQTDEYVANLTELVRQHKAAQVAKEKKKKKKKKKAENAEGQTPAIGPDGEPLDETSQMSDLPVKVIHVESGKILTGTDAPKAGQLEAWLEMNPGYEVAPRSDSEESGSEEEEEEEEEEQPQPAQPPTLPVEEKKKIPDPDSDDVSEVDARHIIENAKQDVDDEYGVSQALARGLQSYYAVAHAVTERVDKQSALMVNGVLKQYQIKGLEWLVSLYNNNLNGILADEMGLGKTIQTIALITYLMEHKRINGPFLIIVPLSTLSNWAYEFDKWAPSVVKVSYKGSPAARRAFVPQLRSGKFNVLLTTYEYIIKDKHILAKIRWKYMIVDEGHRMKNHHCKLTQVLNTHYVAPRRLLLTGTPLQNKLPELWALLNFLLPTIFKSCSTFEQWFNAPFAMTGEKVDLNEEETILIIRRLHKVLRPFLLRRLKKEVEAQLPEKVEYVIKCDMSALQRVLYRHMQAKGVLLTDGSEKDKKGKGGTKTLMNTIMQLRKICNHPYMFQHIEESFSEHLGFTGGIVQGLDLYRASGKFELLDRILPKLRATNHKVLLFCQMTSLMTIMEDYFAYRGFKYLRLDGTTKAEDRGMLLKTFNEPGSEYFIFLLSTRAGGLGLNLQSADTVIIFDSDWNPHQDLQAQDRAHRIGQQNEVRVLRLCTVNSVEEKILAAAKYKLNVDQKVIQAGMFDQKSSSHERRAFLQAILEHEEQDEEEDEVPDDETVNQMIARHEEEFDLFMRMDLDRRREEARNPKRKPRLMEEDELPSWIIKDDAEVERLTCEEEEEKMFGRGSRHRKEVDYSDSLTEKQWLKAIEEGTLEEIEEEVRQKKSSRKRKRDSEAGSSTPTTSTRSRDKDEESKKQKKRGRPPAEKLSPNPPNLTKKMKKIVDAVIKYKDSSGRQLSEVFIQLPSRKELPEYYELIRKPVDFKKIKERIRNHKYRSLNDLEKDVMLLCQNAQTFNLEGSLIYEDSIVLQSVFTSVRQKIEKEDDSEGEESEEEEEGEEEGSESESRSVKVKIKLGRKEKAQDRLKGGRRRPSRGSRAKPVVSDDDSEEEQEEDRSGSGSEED
UniProt Q9Z0H3: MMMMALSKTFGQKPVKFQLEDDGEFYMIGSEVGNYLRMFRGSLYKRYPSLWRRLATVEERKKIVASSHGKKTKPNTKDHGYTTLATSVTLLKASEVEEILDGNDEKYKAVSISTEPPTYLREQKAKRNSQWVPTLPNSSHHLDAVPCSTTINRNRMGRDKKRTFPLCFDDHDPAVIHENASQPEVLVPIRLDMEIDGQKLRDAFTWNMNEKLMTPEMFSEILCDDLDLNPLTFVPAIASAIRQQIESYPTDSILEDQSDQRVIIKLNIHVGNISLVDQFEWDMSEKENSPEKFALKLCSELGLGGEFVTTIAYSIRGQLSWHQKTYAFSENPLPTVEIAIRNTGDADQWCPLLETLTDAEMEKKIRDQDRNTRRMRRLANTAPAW
UniProt Q6PDG5: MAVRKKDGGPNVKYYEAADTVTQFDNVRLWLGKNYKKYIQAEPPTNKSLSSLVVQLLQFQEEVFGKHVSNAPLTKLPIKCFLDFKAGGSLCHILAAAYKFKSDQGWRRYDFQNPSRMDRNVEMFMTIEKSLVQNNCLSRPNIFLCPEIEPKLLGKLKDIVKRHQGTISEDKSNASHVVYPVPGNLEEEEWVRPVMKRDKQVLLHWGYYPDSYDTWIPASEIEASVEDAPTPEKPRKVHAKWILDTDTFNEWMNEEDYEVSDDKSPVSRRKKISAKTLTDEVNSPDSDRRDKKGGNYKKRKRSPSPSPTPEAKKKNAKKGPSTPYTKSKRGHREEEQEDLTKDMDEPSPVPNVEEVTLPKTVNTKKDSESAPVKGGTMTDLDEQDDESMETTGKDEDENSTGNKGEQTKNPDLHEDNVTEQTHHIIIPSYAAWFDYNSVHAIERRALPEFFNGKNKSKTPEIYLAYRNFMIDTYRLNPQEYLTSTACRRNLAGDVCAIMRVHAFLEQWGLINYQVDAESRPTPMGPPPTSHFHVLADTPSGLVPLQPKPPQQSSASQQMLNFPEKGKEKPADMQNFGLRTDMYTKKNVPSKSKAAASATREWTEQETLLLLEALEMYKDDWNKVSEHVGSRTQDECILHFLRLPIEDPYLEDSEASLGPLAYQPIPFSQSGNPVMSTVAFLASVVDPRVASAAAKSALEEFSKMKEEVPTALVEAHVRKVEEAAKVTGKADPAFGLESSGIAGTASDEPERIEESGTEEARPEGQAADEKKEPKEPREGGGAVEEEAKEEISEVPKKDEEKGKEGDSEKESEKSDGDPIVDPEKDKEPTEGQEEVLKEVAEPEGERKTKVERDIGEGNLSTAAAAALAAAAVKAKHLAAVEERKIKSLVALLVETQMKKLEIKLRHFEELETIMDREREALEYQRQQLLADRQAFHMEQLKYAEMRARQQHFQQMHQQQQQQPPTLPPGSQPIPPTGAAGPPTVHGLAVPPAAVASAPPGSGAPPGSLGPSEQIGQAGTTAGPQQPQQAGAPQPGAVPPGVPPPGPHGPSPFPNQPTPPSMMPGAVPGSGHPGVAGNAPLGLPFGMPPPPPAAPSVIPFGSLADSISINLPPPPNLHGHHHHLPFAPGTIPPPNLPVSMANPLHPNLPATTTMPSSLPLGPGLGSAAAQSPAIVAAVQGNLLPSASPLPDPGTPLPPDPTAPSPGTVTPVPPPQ
UniProt Q8BW22: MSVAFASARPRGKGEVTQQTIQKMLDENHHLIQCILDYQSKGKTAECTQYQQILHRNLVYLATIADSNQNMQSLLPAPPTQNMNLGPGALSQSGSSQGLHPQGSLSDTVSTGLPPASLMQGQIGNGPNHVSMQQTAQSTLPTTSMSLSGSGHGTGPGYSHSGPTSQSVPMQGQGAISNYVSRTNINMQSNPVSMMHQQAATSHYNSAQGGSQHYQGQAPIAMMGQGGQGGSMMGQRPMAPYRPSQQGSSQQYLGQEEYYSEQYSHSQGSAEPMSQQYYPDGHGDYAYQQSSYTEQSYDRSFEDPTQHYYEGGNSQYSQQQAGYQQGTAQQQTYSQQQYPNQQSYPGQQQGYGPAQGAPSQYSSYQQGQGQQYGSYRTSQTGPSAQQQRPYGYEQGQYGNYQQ
UniProt Q62280: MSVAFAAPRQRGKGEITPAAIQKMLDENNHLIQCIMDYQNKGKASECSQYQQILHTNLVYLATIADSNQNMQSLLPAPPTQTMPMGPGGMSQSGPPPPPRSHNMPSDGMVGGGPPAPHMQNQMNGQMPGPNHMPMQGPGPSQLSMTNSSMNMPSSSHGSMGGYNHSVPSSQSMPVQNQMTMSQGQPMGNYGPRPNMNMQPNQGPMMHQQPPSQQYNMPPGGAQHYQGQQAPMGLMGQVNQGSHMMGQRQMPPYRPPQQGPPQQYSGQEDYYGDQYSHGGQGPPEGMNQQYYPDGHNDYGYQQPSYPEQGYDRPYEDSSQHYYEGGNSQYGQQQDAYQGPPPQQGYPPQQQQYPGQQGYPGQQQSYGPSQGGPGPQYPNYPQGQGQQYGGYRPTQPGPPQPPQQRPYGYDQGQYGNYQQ
UniProt Q921C3: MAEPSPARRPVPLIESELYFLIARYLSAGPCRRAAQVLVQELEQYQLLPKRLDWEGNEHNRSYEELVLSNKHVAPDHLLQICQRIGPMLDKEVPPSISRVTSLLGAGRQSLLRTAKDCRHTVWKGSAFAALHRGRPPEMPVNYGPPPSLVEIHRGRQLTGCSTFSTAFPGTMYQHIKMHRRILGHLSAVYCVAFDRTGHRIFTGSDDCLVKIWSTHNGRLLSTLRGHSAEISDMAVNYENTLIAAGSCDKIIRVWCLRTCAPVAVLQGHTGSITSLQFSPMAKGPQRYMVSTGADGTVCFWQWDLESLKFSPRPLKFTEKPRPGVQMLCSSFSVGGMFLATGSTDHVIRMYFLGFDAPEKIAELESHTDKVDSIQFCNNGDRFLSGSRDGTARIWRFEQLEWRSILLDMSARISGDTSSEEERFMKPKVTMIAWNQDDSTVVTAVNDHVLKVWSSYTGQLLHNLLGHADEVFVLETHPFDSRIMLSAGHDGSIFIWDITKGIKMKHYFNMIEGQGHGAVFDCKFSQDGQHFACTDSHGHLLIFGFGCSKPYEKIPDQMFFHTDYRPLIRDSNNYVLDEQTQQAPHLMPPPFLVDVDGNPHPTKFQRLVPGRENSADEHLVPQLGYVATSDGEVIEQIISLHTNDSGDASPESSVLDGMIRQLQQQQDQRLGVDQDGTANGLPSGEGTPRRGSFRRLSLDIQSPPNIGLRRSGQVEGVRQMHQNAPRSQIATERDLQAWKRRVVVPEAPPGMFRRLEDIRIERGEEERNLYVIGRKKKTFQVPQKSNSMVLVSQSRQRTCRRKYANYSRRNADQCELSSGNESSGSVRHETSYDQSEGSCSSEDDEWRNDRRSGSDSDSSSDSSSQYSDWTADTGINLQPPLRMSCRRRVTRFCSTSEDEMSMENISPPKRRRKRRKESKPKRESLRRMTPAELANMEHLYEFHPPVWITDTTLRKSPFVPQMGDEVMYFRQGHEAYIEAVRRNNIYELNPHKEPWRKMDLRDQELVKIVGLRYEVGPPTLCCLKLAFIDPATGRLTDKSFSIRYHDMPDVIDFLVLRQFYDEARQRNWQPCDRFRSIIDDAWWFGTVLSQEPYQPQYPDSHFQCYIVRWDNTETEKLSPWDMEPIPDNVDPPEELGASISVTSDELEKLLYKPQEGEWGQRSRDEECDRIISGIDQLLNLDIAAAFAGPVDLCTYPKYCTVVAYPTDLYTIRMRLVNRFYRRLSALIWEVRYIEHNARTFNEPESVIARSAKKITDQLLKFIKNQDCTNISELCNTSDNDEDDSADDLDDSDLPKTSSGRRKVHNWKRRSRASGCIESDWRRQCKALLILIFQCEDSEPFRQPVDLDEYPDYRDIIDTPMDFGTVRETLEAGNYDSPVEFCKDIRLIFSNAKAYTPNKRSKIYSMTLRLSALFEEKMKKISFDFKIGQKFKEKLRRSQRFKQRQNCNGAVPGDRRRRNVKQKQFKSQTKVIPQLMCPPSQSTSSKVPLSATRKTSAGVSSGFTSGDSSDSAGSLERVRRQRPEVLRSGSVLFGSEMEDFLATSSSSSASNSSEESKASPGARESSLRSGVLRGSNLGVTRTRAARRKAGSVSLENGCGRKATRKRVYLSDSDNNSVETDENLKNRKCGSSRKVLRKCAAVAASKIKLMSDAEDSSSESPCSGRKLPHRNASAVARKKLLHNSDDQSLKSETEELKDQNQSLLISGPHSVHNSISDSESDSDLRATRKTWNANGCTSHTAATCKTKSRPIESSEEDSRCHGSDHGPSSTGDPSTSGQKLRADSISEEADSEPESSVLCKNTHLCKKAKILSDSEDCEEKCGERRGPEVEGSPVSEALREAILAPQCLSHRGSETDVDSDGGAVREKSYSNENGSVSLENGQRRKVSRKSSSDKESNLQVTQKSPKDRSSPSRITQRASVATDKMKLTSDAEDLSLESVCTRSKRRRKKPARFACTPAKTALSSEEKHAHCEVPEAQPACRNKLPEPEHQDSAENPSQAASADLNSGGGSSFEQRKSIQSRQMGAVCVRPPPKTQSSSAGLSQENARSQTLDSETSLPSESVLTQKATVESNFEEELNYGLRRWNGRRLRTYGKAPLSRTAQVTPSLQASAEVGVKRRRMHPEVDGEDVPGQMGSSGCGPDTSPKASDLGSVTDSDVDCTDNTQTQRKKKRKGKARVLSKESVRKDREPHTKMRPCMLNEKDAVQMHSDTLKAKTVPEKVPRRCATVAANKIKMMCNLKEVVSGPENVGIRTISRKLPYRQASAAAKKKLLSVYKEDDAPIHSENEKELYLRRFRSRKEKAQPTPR

Key:
[1] = target: SMARCA4 (mouse (endogenous in mouse brain)) (UniProt Q3TKT4); assay: co-IP; adult Brwd1^FLAG-HA mouse brain nuclear extract (0.25 mg/mL) on antibodies to BAF subunits bound to Protein G Dynabeads, overnight 4 °C; IP buffer 20 mM HEPES pH 7.5, 150 mM KCl, 0.1% Triton X-100, 10% glycerol; BRWD1 detected by HA blot
[2] = target: SMARCB1 (mouse (endogenous in mouse brain)) (UniProt Q9Z0H3); assay: as above
[3] = target: SMARCC2 (mouse (endogenous in mouse brain)) (UniProt Q6PDG5); assay: as above
[4] = target: SS18L1 (mouse (endogenous in mouse brain)) (UniProt Q8BW22); assay: as above
[5] = target: SMARCA4 (mouse (endogenous in mouse brain)) (UniProt Q3TKT4); assay: co-IP; E17.5 Brwd1^FLAG-HA mouse brain nuclear extract (0.25 mg/mL) on antibodies to BAF subunits bound to Protein G Dynabeads, overnight 4 °C; IP buffer 20 mM HEPES pH 7.5, 150 mM KCl, 0.1% Triton X-100, 10% glycerol; BRWD1 detected by HA blot; IgG control
[6] = target: SS18 (mouse (endogenous in mouse brain)) (UniProt Q62280); assay: as above
[7] = target: SS18L1 (mouse (endogenous in mouse brain)) (UniProt Q8BW22); assay: as above

Measured: binding

BRWD1-FLAG-HA (from UniProt Q921C3 1-2304)
binds: all assays above
